We go through one molecule from article PMC4507941 (PLoS ONE, 2015).

Results are given in words; binding and its absence hold for the method and conditions named.

In this assay the target is T1, rat islet amyloid polypeptide (rat), P12969.
T1 chain: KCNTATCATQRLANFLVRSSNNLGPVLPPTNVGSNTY
As to the kind of experiment: SDS-PAGE and Western blot of oligomers; peptide incubated at 37°C for 1 hr with gentle shaking; Western blot with rabbit anti-oligomer antibody A11 and rabbit anti-IAPP; rIAPP 20 uM as negative control; both purified. As to conditions: remark: other sources report otherwise. For orientation: Immunoblotting shows a protein as a band on a membrane.

For the molecule KCNTATCATQRLANFLVRSSNNLGPVLPPTNVGSNTY [rat islet amyloid polypeptide, P12969 38-74], the binding entry is listed as “no binding (tested: 20 μM)”.
